Results: paper PMC5669925, “Tumor-expressed immune checkpoint B7x promotes cancer progression and antigen-specific CD8 T cell exhaustion and suppressive innate immune cells” (Oncotarget, 2017)
Results are given in words; binding and its absence hold for the method and conditions named. Some entries that bind do so weakly or less than the wild type. Each block holds one molecule with its values, some of them ahead of it.

What was measured:
[1] = target: T1, Human B7x-hIgG1 (Sino Biological) (human) (UniProt Q7Z7D3); experiment: BLI; BLItz system (ForteBio); human IgG fusion protein (25 ug/mL, 2 min) captured on anti-human IgG Fc capture sensors; protein analytes in 1x Kinetic Buffer (ForteBio); both purified
T1 sequence: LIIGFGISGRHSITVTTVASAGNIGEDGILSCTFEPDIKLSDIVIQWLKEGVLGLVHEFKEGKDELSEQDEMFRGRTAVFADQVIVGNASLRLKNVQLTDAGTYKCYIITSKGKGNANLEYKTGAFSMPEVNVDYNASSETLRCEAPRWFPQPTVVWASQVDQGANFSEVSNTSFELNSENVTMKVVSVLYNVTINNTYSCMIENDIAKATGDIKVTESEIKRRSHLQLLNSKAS

[2] = target: T2, Human NRP1-hIgG1 (Sino Biological) (human) (UniProt O14786); experiment: as above
T2 sequence: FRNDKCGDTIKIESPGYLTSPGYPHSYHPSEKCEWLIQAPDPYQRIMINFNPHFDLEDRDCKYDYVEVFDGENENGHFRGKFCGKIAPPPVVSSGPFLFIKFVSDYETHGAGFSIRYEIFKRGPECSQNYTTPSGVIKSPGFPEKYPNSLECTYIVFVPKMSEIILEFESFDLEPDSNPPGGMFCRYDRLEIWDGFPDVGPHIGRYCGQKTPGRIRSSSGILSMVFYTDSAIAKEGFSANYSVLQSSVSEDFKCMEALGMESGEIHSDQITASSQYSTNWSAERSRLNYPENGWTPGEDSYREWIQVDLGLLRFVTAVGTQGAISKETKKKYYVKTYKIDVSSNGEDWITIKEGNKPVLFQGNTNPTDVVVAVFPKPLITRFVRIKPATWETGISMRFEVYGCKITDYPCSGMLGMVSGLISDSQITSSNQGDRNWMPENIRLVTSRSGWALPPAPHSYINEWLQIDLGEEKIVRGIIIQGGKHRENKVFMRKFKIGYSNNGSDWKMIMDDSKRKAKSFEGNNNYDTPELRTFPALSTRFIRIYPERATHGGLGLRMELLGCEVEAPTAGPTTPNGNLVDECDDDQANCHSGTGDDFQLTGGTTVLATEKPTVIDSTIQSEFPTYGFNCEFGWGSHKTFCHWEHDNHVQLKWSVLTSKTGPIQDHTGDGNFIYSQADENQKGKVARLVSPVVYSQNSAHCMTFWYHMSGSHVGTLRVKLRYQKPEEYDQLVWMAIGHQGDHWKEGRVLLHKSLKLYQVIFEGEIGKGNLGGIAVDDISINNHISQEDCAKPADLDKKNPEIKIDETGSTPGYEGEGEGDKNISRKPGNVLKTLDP

[3] = target: T3, Human Sema3a-hIgG1 (R&D) (human), Q14563; experiment: as above; conditions: remark: other sources report otherwise
T3 chain: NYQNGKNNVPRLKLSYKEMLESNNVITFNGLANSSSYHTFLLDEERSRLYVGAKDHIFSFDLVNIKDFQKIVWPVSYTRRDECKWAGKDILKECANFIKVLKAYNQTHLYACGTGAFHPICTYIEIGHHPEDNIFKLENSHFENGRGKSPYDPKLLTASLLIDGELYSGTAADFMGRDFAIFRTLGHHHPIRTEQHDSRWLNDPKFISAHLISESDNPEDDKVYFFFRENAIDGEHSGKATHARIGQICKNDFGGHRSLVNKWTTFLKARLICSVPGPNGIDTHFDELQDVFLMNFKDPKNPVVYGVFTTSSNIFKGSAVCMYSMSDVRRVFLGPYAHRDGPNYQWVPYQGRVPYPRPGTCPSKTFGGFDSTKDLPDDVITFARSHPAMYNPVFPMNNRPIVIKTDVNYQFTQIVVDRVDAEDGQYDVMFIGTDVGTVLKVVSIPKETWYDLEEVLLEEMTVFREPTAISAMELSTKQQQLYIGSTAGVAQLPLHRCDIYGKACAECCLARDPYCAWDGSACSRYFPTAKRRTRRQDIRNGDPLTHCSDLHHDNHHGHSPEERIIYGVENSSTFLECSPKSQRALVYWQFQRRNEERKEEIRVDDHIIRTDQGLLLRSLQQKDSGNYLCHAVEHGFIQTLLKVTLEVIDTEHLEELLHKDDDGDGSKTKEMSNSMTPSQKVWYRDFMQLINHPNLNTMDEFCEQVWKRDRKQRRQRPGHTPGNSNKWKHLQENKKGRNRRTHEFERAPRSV

[4] = target: Full length human Neuropilin-1 on 3T3 cells (human) (UniProt O14786); experiment: flow cytometry on cells; 3T3 cells expressing full length human Neuropilin-1 (1 x 10^5) incubated with Ig fusion proteins (1 or 10 ug/mL) for 45 minutes on ice in FACS buffer; detected with anti-human IgG Fc antibody; only the binder purified

binding [1]: no binding (tested: 0.5 mg/mL)
Molecule: Recombinant human NRP1 (R&D) (from UniProt O14786 22-856) (receptor)

binding [2]: no binding (tested: 0.5 mg/mL)
B1: Recombinant human B7x (R&D) (ligand, UniProt Q7Z7D3 25-259)
chain: T1 sequence

binding [3]: no binding (tested: 0.5 mg/mL)
B2: Recombinant human B7x (R&D), Q7Z7D3 25-259 (ligand)
chain: T1 sequence

binding [4]: binds
B3: Human Sema3a-hIgG1 (R&D) (Fc fusion, UniProt Q14563 21-771, looked up)
chain: T3 chain
notes: Semaphorin 3a (Sema3a), human; Commercial Fc fusion; no catalogue number; also called Sema3a-Ig; Semaphorin3a-hIgG1; source: bought: R&D systems
